We go through 1 compound from US20160272645A1, “Heterocyclic Compounds and Methods of Use” (MEDIVATION TECHNOLOGIES, INC., priority 2013, published 2016).

By UniProt entry, the sequences of proteins in these tests, tags left out. Where a name states a change or a piece, a line headed by the entry shows the natural chain unless it says otherwise.
UniProt Q06187, whole entry: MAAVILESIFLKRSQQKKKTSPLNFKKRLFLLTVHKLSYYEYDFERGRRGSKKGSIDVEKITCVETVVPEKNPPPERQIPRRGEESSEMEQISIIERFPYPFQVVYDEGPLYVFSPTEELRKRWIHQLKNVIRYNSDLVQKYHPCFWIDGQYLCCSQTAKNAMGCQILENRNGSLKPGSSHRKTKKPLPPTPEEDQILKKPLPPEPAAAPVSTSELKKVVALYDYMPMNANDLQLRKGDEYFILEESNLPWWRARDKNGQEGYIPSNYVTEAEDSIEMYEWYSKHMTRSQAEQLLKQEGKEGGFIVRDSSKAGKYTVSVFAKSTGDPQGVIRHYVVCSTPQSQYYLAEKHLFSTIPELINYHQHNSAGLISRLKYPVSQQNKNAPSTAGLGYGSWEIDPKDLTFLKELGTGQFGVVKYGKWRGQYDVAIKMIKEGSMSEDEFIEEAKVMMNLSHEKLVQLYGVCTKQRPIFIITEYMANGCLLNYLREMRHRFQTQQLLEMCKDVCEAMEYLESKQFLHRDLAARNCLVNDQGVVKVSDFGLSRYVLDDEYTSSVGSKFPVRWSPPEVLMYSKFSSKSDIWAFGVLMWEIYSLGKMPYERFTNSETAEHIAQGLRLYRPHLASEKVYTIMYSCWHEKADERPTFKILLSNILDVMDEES
UniProt O00329, whole entry: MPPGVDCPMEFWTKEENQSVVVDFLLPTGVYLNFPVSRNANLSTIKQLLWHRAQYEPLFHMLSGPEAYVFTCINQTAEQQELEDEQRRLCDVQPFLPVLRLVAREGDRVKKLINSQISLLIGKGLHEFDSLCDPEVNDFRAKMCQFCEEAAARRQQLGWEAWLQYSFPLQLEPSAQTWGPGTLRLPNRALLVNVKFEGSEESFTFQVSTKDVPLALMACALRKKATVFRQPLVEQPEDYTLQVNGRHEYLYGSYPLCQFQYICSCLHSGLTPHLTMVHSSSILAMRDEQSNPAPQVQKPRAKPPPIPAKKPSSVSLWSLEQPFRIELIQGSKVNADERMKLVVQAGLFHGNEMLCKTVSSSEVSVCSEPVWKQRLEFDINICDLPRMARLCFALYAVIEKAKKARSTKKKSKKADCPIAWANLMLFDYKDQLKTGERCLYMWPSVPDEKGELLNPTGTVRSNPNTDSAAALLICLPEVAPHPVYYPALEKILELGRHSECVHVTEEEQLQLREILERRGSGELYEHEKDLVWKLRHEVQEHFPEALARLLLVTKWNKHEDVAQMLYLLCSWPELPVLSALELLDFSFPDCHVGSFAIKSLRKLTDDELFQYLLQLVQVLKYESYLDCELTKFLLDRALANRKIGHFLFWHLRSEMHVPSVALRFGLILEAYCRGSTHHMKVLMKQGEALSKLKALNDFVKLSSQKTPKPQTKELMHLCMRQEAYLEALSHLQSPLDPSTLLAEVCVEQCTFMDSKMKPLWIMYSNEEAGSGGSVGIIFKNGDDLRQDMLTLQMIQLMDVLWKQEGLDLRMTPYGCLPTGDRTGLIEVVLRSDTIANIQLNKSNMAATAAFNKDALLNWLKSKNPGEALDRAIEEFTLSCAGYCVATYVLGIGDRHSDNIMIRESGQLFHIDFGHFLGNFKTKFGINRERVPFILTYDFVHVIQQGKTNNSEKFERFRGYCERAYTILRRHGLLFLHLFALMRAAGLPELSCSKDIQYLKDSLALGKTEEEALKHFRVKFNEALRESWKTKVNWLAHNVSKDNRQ
UniProt P27986, whole entry partner: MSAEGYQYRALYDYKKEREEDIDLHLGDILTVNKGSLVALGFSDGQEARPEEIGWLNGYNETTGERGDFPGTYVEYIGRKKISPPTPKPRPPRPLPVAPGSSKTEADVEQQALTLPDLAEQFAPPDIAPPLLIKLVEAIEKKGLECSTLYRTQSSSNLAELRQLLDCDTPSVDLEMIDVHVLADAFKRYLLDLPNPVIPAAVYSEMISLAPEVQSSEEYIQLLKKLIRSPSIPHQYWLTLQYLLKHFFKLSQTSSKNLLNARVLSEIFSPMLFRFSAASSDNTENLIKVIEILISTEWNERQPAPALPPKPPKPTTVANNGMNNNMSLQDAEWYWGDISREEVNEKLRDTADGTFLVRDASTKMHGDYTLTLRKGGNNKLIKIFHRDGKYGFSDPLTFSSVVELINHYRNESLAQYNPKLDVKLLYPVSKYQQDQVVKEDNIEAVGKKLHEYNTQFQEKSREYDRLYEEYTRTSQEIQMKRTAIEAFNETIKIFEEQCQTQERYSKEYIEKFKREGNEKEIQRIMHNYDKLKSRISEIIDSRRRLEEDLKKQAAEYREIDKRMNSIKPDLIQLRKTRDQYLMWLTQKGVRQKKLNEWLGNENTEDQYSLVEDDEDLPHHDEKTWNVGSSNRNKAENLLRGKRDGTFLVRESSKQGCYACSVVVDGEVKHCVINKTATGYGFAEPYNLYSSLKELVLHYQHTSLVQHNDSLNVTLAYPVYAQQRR

Each structure is given as a SMILES string. The match of structure and compound is tentative.

For assay [1], the system named is CD69+B220+ cells (mouse spleen cells). The experiment in a line: B cell activation assay (IgD-stimulated CD69 on B220+ spleen cells, FACS). The note with it: 100 nM test compound, 30 min, then IgD 3 μg/mL 4 h, tested form: TFA salt. On the procedure: 1 Female mouse approximately 2 months old was euthanized with CO2 and the spleen removed. The tissue was homogenized with a polished glass microscope slide. The cells were collected in 5 mL complete medium (RPMI+10% FBS+pen/strep), placed in a 15 mL falcon tube and centrifuged at 500×g for 5 min. The supernatant was discarded and the pellet was resuspended in 3 mL of ACK lysis buffer (NH4Cl 0.17M, KHCO3 10 mM, EDTA-Na2 0.1 mM, pH 7.2), incubated at 37° C. for 5 min. 2 mL complete medium was added and the mixture centrifuged at 500×g for 5 min. The supernatant was discarded and the pellet resuspended in 1 mL complete medium. The mixture was passed through a […] cell strainer and collect in 50 mL falcon tube. Enough medium was added to have a total of 10 mL. The cells were counted and seeded in 24 or 48-well plate in 1 mL complete medium at 10^6 cells/mL. The plate was placed in a 37° C. incubator for 15 min. The cells were treated for 30 min at 37° C. with 100 nM test compound dissolved in 100% DMSO. 3 μL IgD (Accurate chemical and scientific corp.) was added at a final concentration of 3 μg/mL and the mixture incubated at 37° C. for 4 h. […] The samples were run in the FACS Canto II cytometer and quantified by the number of CD69+B220+ cells as a percentage of the total number of B220+ alive cells.

Assay [2] deals with BTK (Homo sapiens, UniProt Q06187). In words: BTK kinase profiling, HotSpot radiometric assay (Reaction Biology). Conditions: read-out: BTK IC50; 10 dose IC50; ATP 10 μM; tested form: TFA salt. The protocol:
(§1) Compounds of the invention were profiled in a 10 dose IC50 panel against BTK and PI3Kδ, both provided by Reaction Biology Corporation.
BTK assay: In vitro profiling protein kinases was performed using the “HotSpot” assay platform. Briefly, specific kinase/substrate pairs along with required cofactors were prepared in reaction buffer. Compounds were prepared as 10 mM stock solutions in DMSO. Compounds were delivered into the reaction, followed 15-20 minutes later by addition of a mixture of ATP (Sigma, St. Louis Mo.) and ^33P ATP (Perkin Elmer, Waltham Mass.) to a final concentration of 10 μM. Reactions were carried out at RT for 120 min, followed by spotting of the reactions onto P81 ion exchange filter paper (Whatman Inc., Piscataway, N.J.). Unbound phosphate was removed by extensive washing of filters in 0.75% Phosphoric acid. […] ICso values and curve fits were obtained using Prism (GraphPad Software). Buffer Conditions: 20 mM Hepes (pH 7.5), 10 mM MgCl2, 1 mM EGTA, 0.02% Brij35, 0.02 mg/mL BSA, 0.1 mM Na3VO4, 2 mM DTT, 1% DMSO.

The target in assay [3] is PI3Kδ (Homo sapiens, UniProt O00329). In words: PI3Kδ kinase profiling, HTRF PIP3 displacement assay (Reaction Biology). The note with it: read-out: PI3Kδ IC50; 10 dose IC50; ATP 10 μM; tested form: TFA salt.
Text: as §1
PI3Kδ assay: The PIP3 product is detected by displacement of biotin-PIP3 from an energy transfer complex consisting of Europium labeled anti-GST monoclonal antibody, a GST-tagged pleckstrin homology (PH) domain, biotinylated PIP3 and Streptavidin-Allophycocyanin (APC). Excitation of Europium in the complex results in an energy transfer to the APC and a fluorescent emission at 665 nm. The PIP3 product formed by PI3-Kinase (h) activity displaces biotin-PIP3 from the complex resulting in a loss of energy transfer and thus a decrease in signal. This is a 3-step reaction: First, the kinase reaction with PIP2 substrate is carried out in the presence of ATP (10 μM), and the reaction is quenched with stop Solution, and then finally detect by adding Detection Mixture followed by incubation (10 min). Reaction procedure: 1) Prepare substrate in freshly prepared Reaction Buffer. 2) Deliver kinase into the substrate solution and gently mix. 3) Deliver compounds in 100% DMSO (1 μM) into the kinase reaction mixture by Acoustic technology (Echo550; nanoliter range), incubate for 10 min at RT. 4) Deliver ATP into the reaction mixture to initiate the reaction. 5) Incubate for 30 min at 30° C. 6) Quench the reaction with Stop Solution. […]
For orientation: In TR-FRET formats the signal depends on donor and acceptor labels being close together.

As for `Nc1ncnc2c1c(-c1cc(O)cc(F)c1)nn2CCNC(=O)c1ccc(F)cc1Cl`, the “CD69 @ 100 nM (% Inh)” value in assay [1] is on record as 12.77 ± 6.00 (n = 6) % Inh. Moreover, the IC50 – broadly, the concentration needed to halve the response being measured – in assay [2] is 4780 nM; in assay [3] it was 23 nM.
